Results published in the supplement of paper PMC12067093, “Discovery and optimisation of a covalent ligand for TRIM25 and its application to targeted protein ubiquitination” (Chemical Science, 2025).
This is one part of the list.

Protein sequences, listed by entry. Tags and fused reporters are not part of them. Lines headed by an entry give the natural chain unless they say otherwise; changes in a name come on top.
UniProt Q6PIY7: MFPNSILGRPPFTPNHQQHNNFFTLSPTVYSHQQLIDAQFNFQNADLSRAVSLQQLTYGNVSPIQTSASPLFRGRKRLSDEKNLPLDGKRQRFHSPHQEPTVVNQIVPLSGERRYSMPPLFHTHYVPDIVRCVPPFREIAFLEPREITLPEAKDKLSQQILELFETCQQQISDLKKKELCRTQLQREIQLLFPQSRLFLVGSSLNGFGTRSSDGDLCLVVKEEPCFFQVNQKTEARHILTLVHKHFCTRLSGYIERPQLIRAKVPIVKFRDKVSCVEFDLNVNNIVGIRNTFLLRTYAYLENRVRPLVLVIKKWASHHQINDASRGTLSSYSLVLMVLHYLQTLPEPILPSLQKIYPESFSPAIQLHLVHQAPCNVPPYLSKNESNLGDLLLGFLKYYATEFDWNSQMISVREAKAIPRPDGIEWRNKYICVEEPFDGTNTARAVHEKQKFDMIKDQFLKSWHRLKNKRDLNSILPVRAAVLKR
UniProt P17987, whole entry, looked up: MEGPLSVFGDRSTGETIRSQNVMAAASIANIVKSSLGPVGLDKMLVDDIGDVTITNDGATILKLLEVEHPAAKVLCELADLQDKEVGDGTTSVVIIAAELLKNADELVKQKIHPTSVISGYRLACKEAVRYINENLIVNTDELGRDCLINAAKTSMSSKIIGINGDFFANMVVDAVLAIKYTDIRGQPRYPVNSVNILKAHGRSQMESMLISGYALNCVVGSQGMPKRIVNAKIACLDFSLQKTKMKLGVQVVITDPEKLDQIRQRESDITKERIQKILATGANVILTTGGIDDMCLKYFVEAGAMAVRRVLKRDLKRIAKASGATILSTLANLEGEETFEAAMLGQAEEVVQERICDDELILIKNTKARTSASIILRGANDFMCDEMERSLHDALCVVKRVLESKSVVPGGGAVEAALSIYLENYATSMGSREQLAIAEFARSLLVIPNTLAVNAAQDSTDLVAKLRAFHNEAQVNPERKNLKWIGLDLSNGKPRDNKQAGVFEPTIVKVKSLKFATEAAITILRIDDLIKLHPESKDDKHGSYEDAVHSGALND
UniProt Q9UPZ6: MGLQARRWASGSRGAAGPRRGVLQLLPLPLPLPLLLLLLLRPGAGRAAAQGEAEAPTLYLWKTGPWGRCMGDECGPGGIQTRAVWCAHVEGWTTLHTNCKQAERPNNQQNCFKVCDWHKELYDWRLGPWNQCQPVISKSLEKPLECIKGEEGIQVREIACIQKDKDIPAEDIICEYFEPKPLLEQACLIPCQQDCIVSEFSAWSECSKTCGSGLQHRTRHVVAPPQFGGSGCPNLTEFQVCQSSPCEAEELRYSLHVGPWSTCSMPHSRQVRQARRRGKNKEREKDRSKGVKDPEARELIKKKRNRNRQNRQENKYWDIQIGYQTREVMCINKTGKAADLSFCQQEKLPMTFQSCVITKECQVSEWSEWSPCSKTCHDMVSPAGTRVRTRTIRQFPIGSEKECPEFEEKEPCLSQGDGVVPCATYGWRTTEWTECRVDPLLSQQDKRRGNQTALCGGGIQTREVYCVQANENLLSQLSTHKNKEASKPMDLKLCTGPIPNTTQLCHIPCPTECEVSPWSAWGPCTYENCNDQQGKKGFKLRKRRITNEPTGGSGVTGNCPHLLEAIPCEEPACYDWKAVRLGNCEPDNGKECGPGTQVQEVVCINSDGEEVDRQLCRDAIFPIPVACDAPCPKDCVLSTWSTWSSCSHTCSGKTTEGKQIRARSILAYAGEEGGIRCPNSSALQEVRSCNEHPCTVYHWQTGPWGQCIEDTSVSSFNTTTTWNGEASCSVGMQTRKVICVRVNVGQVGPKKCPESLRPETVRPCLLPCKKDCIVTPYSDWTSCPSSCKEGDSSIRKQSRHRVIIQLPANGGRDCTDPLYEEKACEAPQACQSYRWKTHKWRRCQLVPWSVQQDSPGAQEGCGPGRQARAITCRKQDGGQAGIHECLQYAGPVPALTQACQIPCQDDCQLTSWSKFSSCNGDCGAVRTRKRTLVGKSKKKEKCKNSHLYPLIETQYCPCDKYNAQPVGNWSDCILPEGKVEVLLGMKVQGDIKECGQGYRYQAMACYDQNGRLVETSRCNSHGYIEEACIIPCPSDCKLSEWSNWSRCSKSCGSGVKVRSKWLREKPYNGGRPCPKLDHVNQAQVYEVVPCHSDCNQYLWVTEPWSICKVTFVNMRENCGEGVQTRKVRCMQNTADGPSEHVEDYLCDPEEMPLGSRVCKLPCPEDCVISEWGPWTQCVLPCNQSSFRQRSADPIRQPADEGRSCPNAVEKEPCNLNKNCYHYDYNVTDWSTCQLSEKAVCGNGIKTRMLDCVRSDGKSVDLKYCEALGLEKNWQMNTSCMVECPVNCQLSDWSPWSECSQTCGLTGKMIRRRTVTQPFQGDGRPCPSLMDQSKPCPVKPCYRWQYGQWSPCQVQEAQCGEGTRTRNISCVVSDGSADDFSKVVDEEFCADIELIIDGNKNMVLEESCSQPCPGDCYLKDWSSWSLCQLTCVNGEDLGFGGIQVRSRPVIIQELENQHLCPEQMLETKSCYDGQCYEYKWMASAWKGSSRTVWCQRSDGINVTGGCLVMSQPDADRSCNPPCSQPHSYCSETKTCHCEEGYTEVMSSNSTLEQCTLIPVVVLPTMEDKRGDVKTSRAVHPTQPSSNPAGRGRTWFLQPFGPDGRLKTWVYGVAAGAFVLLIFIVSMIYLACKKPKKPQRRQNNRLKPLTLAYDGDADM
UniProt Q96J01: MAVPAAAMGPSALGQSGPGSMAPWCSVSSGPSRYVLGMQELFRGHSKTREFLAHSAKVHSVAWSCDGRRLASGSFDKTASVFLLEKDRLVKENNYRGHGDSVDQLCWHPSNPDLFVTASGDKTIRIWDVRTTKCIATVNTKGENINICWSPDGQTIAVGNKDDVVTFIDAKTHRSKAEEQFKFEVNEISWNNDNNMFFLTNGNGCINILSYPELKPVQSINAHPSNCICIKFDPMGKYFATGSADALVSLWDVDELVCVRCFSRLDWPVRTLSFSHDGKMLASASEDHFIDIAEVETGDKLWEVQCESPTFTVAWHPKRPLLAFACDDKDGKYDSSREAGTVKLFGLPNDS
UniProt P07204, whole entry, looked up: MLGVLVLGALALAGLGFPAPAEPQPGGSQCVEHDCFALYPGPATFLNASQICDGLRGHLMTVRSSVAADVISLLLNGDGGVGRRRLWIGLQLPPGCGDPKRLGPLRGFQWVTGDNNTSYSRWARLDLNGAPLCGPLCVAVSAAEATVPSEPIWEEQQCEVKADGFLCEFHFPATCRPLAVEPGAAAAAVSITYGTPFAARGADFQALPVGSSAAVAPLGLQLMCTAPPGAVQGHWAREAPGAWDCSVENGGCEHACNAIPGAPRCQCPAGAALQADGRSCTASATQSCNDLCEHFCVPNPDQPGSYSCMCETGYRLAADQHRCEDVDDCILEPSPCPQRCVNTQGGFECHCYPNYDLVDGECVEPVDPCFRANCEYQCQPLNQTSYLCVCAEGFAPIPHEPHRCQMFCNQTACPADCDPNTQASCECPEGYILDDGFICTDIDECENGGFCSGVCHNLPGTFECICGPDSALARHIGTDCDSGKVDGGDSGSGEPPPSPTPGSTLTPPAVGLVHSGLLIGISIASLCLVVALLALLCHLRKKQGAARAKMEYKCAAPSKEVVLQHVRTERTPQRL
UniProt P31483: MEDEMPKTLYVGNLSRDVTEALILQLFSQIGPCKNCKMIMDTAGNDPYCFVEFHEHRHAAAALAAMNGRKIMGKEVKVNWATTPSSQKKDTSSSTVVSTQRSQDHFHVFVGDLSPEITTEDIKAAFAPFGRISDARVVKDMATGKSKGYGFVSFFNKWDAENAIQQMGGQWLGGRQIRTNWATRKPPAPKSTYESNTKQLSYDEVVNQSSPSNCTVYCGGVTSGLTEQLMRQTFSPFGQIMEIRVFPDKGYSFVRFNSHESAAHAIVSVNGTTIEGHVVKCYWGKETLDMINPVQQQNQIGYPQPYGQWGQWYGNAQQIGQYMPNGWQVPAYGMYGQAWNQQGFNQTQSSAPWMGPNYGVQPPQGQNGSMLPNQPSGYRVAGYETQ
UniProt Q9NUW8, whole entry, looked up: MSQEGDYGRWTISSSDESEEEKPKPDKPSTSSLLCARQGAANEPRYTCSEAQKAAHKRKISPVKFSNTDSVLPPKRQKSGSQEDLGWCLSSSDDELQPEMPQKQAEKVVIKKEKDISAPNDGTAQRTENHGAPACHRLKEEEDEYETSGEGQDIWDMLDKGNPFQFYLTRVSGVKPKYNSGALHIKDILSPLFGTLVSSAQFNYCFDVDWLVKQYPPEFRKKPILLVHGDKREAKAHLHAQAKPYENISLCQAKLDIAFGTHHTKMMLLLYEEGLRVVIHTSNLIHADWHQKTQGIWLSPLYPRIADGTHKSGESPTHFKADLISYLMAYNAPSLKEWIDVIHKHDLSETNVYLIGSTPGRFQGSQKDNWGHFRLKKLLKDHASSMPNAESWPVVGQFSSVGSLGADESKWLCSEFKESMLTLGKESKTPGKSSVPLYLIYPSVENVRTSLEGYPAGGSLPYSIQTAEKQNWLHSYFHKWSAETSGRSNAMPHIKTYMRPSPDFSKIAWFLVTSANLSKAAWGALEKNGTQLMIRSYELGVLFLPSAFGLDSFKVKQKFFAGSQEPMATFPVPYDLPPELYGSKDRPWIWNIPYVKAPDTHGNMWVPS
UniProt Q9UGI8: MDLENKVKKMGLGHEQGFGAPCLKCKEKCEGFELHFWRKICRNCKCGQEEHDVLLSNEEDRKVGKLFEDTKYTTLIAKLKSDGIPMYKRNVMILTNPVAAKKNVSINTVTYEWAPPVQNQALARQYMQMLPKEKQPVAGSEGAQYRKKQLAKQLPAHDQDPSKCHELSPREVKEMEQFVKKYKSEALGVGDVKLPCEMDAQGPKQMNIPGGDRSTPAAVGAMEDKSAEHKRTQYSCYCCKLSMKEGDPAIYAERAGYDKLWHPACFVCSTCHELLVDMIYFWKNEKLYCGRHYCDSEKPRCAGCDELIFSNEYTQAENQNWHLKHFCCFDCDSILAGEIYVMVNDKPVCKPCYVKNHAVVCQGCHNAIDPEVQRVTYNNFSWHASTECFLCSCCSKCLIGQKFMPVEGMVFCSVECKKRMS
UniProt Q86W42: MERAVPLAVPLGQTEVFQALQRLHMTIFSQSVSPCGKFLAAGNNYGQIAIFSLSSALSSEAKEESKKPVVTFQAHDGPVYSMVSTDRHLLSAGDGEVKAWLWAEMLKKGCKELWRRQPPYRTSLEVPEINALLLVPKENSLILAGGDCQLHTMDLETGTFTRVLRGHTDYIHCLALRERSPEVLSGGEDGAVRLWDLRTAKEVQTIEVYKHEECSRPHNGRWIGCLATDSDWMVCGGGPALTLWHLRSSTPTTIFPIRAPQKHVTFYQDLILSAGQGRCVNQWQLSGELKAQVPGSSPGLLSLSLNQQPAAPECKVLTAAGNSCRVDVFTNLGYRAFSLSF
UniProt Q13488, whole entry, looked up: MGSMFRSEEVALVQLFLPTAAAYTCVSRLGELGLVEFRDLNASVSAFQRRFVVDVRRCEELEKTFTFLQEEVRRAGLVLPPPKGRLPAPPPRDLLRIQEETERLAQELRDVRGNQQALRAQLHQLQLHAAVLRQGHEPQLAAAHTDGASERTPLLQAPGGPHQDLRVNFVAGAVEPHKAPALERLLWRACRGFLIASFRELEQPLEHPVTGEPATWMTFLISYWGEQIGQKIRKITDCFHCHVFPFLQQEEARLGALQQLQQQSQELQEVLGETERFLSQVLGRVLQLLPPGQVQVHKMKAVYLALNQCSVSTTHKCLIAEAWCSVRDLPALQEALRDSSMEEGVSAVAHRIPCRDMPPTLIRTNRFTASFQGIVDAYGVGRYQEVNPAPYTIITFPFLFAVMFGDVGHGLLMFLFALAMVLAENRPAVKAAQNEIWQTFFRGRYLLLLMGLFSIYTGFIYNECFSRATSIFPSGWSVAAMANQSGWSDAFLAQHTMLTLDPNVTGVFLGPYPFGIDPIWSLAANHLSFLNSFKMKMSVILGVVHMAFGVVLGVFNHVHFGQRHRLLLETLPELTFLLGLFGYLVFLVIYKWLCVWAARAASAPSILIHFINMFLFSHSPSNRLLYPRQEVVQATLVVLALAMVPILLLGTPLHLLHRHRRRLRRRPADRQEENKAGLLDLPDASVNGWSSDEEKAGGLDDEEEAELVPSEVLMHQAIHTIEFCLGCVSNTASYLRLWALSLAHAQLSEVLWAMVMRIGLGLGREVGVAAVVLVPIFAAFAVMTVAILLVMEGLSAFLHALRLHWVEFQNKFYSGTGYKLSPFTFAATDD

Compound: CC1Cc2ccccc2N1C(=O)C1CCCN(C1)C(=O)CCl (mixture of isomers) [TRIM25 ligand 11 (diastereomer mixture)]
Assay: probe-labelled cysteine peptide fold change vs DMSO (competition) (log2 fold change); higher = less target engagement (more negative = stronger competition)
Conditions: THP-1, incubation time: 4 h
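Note: competitive chemoproteomic profiling in live THP-1 cells with an iodoacetamide desthiobiotin (IA-DTB) probe, comparing probe-labelled peptide intensities in compound-treated cells against DMSO-treated controls.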

| Target | probe-labelled cysteine peptide fold change (10 µM) | probe-labelled cysteine peptide fold change (50 µM) |
| --- | --- | --- |
| TERF2IP_Q9NYB0_54_LSTLILHGGGTVCR (UniProt Q9NYB0) | -0.171 | -0.121 |
| TENT2_Q6PIY7_374_IYPESFSPAIQLHLVHQAPCNVPPYLSK (UniProt Q6PIY7) | 0.113 | -0.0699 |
| TCP1_P17987_397_SLHDALCVVK (UniProt P17987) | 0.0457 | -0.0909 |
| THSD7A_Q9UPZ6_1459_SRPVIIQELENQHLCPEQMLETK (UniProt Q9UPZ6) | 0.231 | -0.0287 |
| THOC3_Q96J01_65_VHSVAWSCDGRR (UniProt Q96J01) | -0.0874 | -0.159 |
| THBD_P07204_267_CQCPAGAALQADGR (UniProt P07204) | 0.143 | 0.39 |
| TIA1_P31483_49_MIMDTAGNDPYCFVEFHEHR (UniProt P31483) | -0.0148 | -0.032 |
| TDP1_Q9NUW8_251_PYENISLCQAK (UniProt Q9NUW8) | 0.182 | 0.202 |
| TES_Q9UGI8_412_FMPVEGMVFCSVECK (UniProt Q9UGI8) | 0.107 | 0.0181 |
| TCF20_Q9UGU0_1328_NCPAVTLTSPAK (UniProt Q9UGU0) | -0.359 | -0.337 |
| TDRD7_Q8NHU6_568_FCSLSFQATK (UniProt Q8NHU6) | 0.126 | 0.333 |
| THOC6_Q86W42_314_AQVPGSSPGLLSLSLNQQPAAPECK (UniProt Q86W42) | -0.0144 | 0.0557 |
| TCP1_P17987_147_YINENLIVNTDELGRDCLINAAK (UniProt P17987) | -0.0297 | -0.00536 |
| TCIRG1_Q13488_241_KITDCFHCHVFPFLQQEEAR (UniProt Q13488) | 0.0599 | -0.000968 |

Individual results from the results shown:
probe-labelled cysteine peptide fold change (10 µM), TIA1_P31483_49_MIMDTAGNDPYCFVEFHEHR (UniProt P31483) reads -0.0148
probe-labelled cysteine peptide fold change (50 µM), TENT2_Q6PIY7_374_IYPESFSPAIQLHLVHQAPCNVPPYLSK (UniProt Q6PIY7) reads -0.0699
